For the test, the system named is P388 leukemia ip, CD2F1 mice, survival T/C. The test can be described thus: NCI In Vivo Anticancer Drug Screen. Data for tumor model P388 Leukemia (intraperitoneal) in CD2F1 (CDF1) mice. The following applies: T/C endpoint: median survival time, higher T/C = longer survival.
The mark [1] stands for this setting: dose: 100.0 mg/kg/injection, schedule: Q01DX009 (ip), vehicle: saline with Tween-80.
[2] abbreviates: dose: 200.0 mg/kg/injection, schedule: Q01DX009 (ip), vehicle: saline with Tween-80.
The mark [3] stands for this setting: dose: 400.0 mg/kg/injection, schedule: Q01DX009 (ip), vehicle: saline with Tween-80.
Where [4] appears, read: dose: 240.0 mg/kg/injection, schedule: Q01DX005 (ip), vehicle: saline with Tween-80.
[5] abbreviates: dose: 25.0 mg/kg/injection, schedule: Q01DX009 (ip), vehicle: Klucel (hydroxypropylcellulose) (HPC).
Setting [6] is: dose: 25.0 mg/kg/injection, schedule: Q01DX005 (ip), vehicle: saline with Tween-80.
The mark [7] stands for this setting: dose: 25.0 micrograms/kg/injection, schedule: Q01DX009 (ip), vehicle: saline + alcohol.
Where [8] appears, read: dose: 50.0 micrograms/kg/injection, schedule: Q01DX009 (ip), vehicle: saline + alcohol.

The list shows only some results of the screen, not a fair sample: it gathers tests that were run many times, whatever their T/C, doses with no T/C, and many T/C values between a quarter and a half above the control. Further doses and runs are listed elsewhere. T/C is the treated group as % of the vehicle group. Some doses have a count of surviving animals in place of a T/C: the source holds a T/C of zero for them, seemingly a mark for toxic or unscored doses. Some doses without a T/C left all or most animals alive at the check, yet need not have been tolerated: the source hardly ever lists a survival T/C far under the control, and the zero likely stands for such cases as well. Survivors were counted at the toxicity check, usually on the fifth day, unless a day is given; later deaths do not show. Schedule codes are those of the source, read here as Q, the interval in days (D) or hours (H), X, the number of doses. Some entries hold several experiments; the results are listed from low to high. Some structures stand for samples that the source files as different forms (salt, stereo form or complex); doses refer to the form tested. Additions like (4×) count equal records among those shown. For survival time, the PubChem record calls one and a half times the control and up active, and a quarter to a half above the control has no call in these data; cut-offs in other NCI protocols can differ. Some T/C values are followed by the survivors on the day toxicity was checked, most often the fifth; where none is given, no animal had died by that day.

As for `CC1=CCC2C3(C)C=CC(=O)C(C)(C)C3CC3OC(=O)C=C1C32C` (stereo not given), the survivor count by setting is: (dose: 3.0 mg/kg/injection, schedule: Q01DX009 (ip), vehicle: Klucel (hydroxypropylcellulose) (HPC)) 6 of 6; (dose: 6.0 mg/kg/injection, schedule: Q01DX009 (ip), vehicle: Klucel (hydroxypropylcellulose) (HPC)) 6 of 6.
In the case of `CCn1c2ccccc2c2ccc(N=Nc3ccc(N(C)C)cc3)cc21`, the T/C is, setting by setting: under setting [1], 126 % of control; under setting [2], 133 % of control. In addition, under setting [2], the survivor count was 4 of 6 and 5 of 6.
`FS(F)(F)(F)(F)c1cccc(NC(=S)SCc2ccc(Cl)cc2)c1`: the survivor count (dose: 50.0 mg/kg/injection, schedule: Q01DX009 (ip), vehicle: saline) is listed as 3 of 6.
In the case of `NC(=S)c1ccc(Br)cc1`, under “dose: 200.0 mg/kg/injection, schedule: Q01DX009 (ip), vehicle: Klucel (hydroxypropylcellulose) (HPC)”, the survivor count is recorded as 5 of 6.
For the compound `CN(C)CCCN1c2ccccc2Sc2ccc(Cl)cc21`, the survivor count is, setting by setting: (dose: 12.5 mg/kg/injection, schedule: Q01DX009 (ip), vehicle: saline with Tween-80) 4 of 6; (dose: 60.0 mg/kg/injection, schedule: Q04DX003 (ip), vehicle: saline) 3 of 6; (dose: 100.0 mg/kg/injection, schedule: Q04DX003 (ip), vehicle: saline with Tween-80) 3 of 6; (dose: 100.0 mg/kg/injection, schedule: Q04DX003 (ip), vehicle: saline) 4 of 6 and 5 of 6; (dose: 200.0 mg/kg/injection, schedule: Q04DX003 (ip), vehicle: saline with Tween-80) 0 of 6; (dose: 400.0 mg/kg/injection, schedule: Q04DX003 (ip), vehicle: saline with Tween-80) 0 of 6. Besides, the T/C is 126 % of control [5 of 6 alive] (dose: 25.0 mg/kg/injection, schedule: Q04DX003 (ip), vehicle: Klucel (hydroxypropylcellulose) (HPC)); 126 % of control (dose: 30.0 mg/kg/injection, schedule: Q04DX003 (ip), vehicle: saline); 126 and 133 % of control (dose: 50.0 mg/kg/injection, schedule: Q04DX003 (ip), vehicle: saline); 138 % of control (dose: 100.0 mg/kg/injection, schedule: Q04DX003 (ip), vehicle: Klucel (hydroxypropylcellulose) (HPC)).
In the case of `COc1cc2c(cc1O)CCCC(C)(C)C2=O`, the survivor count under setting [3] is recorded as 6 of 6.
Regarding `CCOC(=O)c1cc(=O)oc(=O)[nH]1`, the survivor count (dose: 50.0 mg/kg/injection, schedule: Q04DX003 (ip), vehicle: Klucel (hydroxypropylcellulose) (HPC)) is 6 of 6.
On to `CC(C)C[N+]1(Cc2ccc(Cl)c(Cl)c2)CCOCC1`, for which the survivor count (dose: 400.0 mg/kg/injection, schedule: Q04DX002 (ip), vehicle: saline with Tween-80) is given as 0 of 6.
Consider `Clc1ccc(-c2cn3c(n2)SCC3)cc1`, for which the survivor count (dose: 400.0 mg/kg/injection, schedule: Q01DX001 (ip), vehicle: Klucel (hydroxypropylcellulose) (HPC)) was 6 of 6.
Regarding `O=c1[nH]c(Cl)nc2n[nH]c(Br)c12`, where the note is “dose: 400.0 mg/kg/injection, schedule: Q01DX001 (ip), vehicle: saline with Tween-80”, the survivor count is on record as 0 of 6.
Consider `CC1(C)C2CCC1(C)C(O)C2N` (stereo not given), for which the survivor count was 2 of 6 and 4 of 5 (dose: 120.0 mg/kg/injection, schedule: Q01DX005 (ip), vehicle: saline with Tween-80); 0 of 6 under setting [4].
Consider `C[CH2][Hg][S]c1nsc([S][Hg][CH2]C)n1`, for which the T/C under setting [5] is 128 and 130 % of control [5 of 6 alive].
For the compound `CCCCCCCCCCCCCCP(I)(N(C)C)(N(C)C)N(C)C`, the T/C is, setting by setting: (dose: 0.38 mg/kg/injection, schedule: Q01DX009 (ip), vehicle: saline with Tween-80) 135 % of control; (dose: 0.75 mg/kg/injection, schedule: Q01DX009 (ip), vehicle: saline with Tween-80) 126 and 139 % of control. Further, the survivor count is 3 of 6 and 6 of 6 (dose: 1.5 mg/kg/injection, schedule: Q01DX009 (ip), vehicle: saline with Tween-80); 2 of 6 (dose: 3.0 mg/kg/injection, schedule: Q01DX009 (ip), vehicle: saline with Tween-80).
For the compound `O=C(Nc1ccc(Cl)cc1)Nc1nnc2nc(C(C(=O)c3cccs3)c3nc4nnc(NC(=O)Nc5ccc(Cl)cc5)n4[nH]c3=O)c(=O)[nH]n12`, under setting [4], the survivor count is given as 6 of 6.
For `Cc1cc(N(CCCl)CCCl)ccc1C=Nc1ccccc1C(=O)O`, the T/C under setting [1] was 128 % of control. Besides, the survivor count under setting [3] was 5 of 6.
Take `O=C(O)C/[N+]([O-])=N\O`: the survivor count (dose: 800.0 mg/kg/injection, schedule: Q04DX003 (ip), vehicle: saline) is 1 of 6.
As for `C[CH2][Ge]([CH2]C)[CH2]C.C[CH2][Ge]([CH2]C)[CH2]C.C[CH2][Ge]([CH2]C)[O][Ge]([CH2]C)[CH2]C`, the T/C reads like this: (dose: 25.0 mg/kg/injection, schedule: Q01DX009 (ip), vehicle: saline with Tween-80) 130 % of control; (dose: 50.0 mg/kg/injection, schedule: Q01DX009 (ip), vehicle: saline with Tween-80) 133 % of control; under setting [1], 141 % of control. Also, the survivor count reads like this: under setting [2], 2 of 6; under setting [3], 0 of 6.
Turning to `O=[N+]([O-])c1ccc(/C(=C/c2ccc(F)cc2)S(=O)(=O)c2ccccc2)o1`, for the setting “dose: 200.0 mg/kg/injection, schedule: Q01DX009 (ip), vehicle: suspension in saline”, the survivor count is 6 of 6.
For the compound `COc1ccc2c(c1OC)C(=O)O[C@@H]2[C@H]1c2cc3c(cc2CCN1C)OCO3`, the survivor count (dose: 160.0 mg/kg/injection, schedule: Q01DX009 (ip), vehicle: saline) is 2 of 6.
Take `CCC1C[N+]2=C(c3cc(OC)c(OC)cc3CC2)c2c1cc1n2CCc2cc(OC)c(OC)cc2-1` (stereo not given): the survivor count reads like this: (dose: 12.5 mg/kg/injection, schedule: Q01DX005 (ip), vehicle: saline with Tween-80) 1 of 6; under setting [6], 0 of 6; (dose: 50.0 mg/kg/injection, schedule: Q01DX005 (ip), vehicle: saline with Tween-80) 0 of 6.
With `Cc1cccnc1NC1OC(=O)c2ccccc21` (stereo not given), the survivor count under setting [2] was 3 of 6.
On to `COc1cc2cc(c1Cl)N(C)C(=O)CC(OC(=O)CC(C)C)C1(C)OC1C(C)C1CC(O)(NC(=O)O1)C(OC)/C=C/C=C(C)C2` (stereo not given), for which the T/C reads like this: (dose: 3.1 micrograms/kg/injection, schedule: Q01DX009 (ip), vehicle: saline + alcohol) 132 % of control; (dose: 6.3 micrograms/kg/injection, schedule: Q01DX009 (ip), vehicle: saline + alcohol) 140 % of control; (dose: 12.5 micrograms/kg/injection, schedule: Q01DX009 (ip), vehicle: saline + alcohol) 115, 120, 127, 142 % of control; under setting [7], 129, 130, 158 % of control; under setting [8], 124, 133, 178 % of control. For the same compound, the survivor count reads like this: under setting [7], 5 of 6; under setting [8], 3 of 6; (dose: 100.0 micrograms/kg/injection, schedule: Q01DX009 (ip), vehicle: saline + alcohol) 1 of 6; (dose: 200.0 micrograms/kg/injection, schedule: Q01DX009 (ip), vehicle: saline + alcohol) 1 of 6 (2×) and 3 of 6.
For the compound `CCCn1cc2c3c(cccc31)[C@H]1C[C@@H](C)CN(C)[C@@H]1C2`, the T/C under setting [6] was 126 % of control.
For `CCCn1c2nc(=O)[nH]c(=O)c-2[n+]([O-])c2ccccc21`, the survivor count (dose: 25.0 mg/kg/injection, schedule: Q01DX001 (ip), vehicle: saline with Tween-80) is recorded as 1 of 6.
Regarding `COc1c(Cl)c2c(c(OC)c1OC)-c1ccc(OC)c(=O)cc1C(NC(C)=O)CC2` (stereo not given), the survivor count was 5 of 5 (dose: 3.12 mg/kg/injection, schedule: Q01DX009 (ip), vehicle: Klucel (hydroxypropylcellulose) (HPC)); 4 of 5 and 5 of 5 (dose: 6.25 mg/kg/injection, schedule: Q01DX009 (ip), vehicle: Klucel (hydroxypropylcellulose) (HPC)); 0 of 5 (dose: 12.5 mg/kg/injection, schedule: Q01DX009 (ip), vehicle: Klucel (hydroxypropylcellulose) (HPC)); 0 of 5 under setting [5].
As to `C[As](C)SCC1OC(n2ccc(=O)[nH]c2=O)C2OC(C)(C)OC12` (stereo not given), the survivor count (dose: 200.0 mg/kg/injection, schedule: Q01DX009 (ip), vehicle: distilled water + Tween-80) is recorded as 4 of 6.
